# The other results are listed elsewhere or left out. Single values are uncertain here, since repeats match poorly.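 Human embryonic kidney cells were transiently transfected with a plasmid bearing a Renilla luciferase gene under the HSV-TK promoter. This first-round screen tests roughly ten thousand compounds for ones that increase reporter output.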
# Tested on: HEK 293FT
# Experiment: log relative Renilla luciferase luminescence (reporter expression vs reference, reference not stated) (log (base not stated)); higher = higher recombinant reporter expression
# Settings: 10 µM; time after transfection 48 h
# Description: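 HEK 293FT cells transiently transfected with pRL-TK (Renilla luciferase) were treated with compounds at 10 uM and luminescence was read about 42 h later. Values are log relative Renilla luminescence (log base and reference not stated). Single-pass screen; ICCB Known Bioactives library.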
row,SMILES,log
1,"CCCCCCCCCC(=O)OCC(CO)OC(=O)CCCCCCCCC (centres undefined) [1,2-Didecanoyl-glycerol (10:0)]",-0.0601
2,Cc1[nH]c(=O)c(C#N)cc1-c1ccncc1 [Milrinone],-0.129
3,CCCCCC(O)CCCC(=O)O (centres undefined) [5-Hydroxydecanoate],0.0444
4,CCCCC/C=C/C=C1/C(=O)C=C[C@@H]1C/C=C\CCCC(=O)O [15d-Prostaglandin J2],0.121
5,Cc1ccc2c(c1)C(=O)C1(O)CCN(c3ccccc3)C1=N2 (centres undefined) [Blebbistatin],-0.591
6,O=C(O)CCC/C=C\C[C@@H]1[C@@H](/C=C/[C@@H](O)COc2cccc(C(F)(F)F)c2)[C@H](O)C[C@@H]1O (racemic) [Fluprostenol],-0.127
7,OC[C@@H]1NC[C@H](O)[C@H](O)[C@H]1O [Deoxymannojirimycin(1)],0.288
8,CCCCC/C=C\C\C=C/C=C/C=C/[C@@H](SC[C@H](NC(=O)CC[C@H](N)C(=O)O)C(=O)NCC(=O)O)[C@@H](O)CCCC(=O)O [Leukotriene C4],-0.232
9,CCCCC/C=C\C\C=C/C=C/C=C/[C@@H](SC[C@H](N)C(=O)NCC(=O)O)[C@@H](O)CCCC(=O)O [Leukotriene D4],-0.13
10,CCCCCCCC/C=C\CCCCCCCCOC[C@H](COP(=O)([O-])OCC[N+](C)(C)C)OC(C)=O,0.0181
11,CCCCC[C@H](O)CC(=O)CCc1ccc(O)c(OC)c1 [Gingerol],0.238
12,CC(=O)O[C@H]1C(=O)[C@@]2(C)[C@H]([C@H](OC(=O)c3ccccc3)[C@]3(O)C[C@H](OC(=O)[C@H](O)[C@@H](NC(=O)c4ccccc4)c4ccccc4)C(C)=C1C3(C)C)[C@]1(OC(C)=O)CO[C@@H]1C[C@@H]2O [Taxol = Paclitaxel],0.106
13,N#Cc1cc2c(OCC(O)CN3CCN(C(c4ccccc4)c4ccccc4)CC3)cccc2[nH]1 (centres undefined),-0.245
14,C=C1O[C@@](CO)(n2cnc3c(N)ncnc32)[C@H](O)[C@@H]1O [Decoyinine],0.322
15,"CCCCCCCC(=O)OC[C@H](CO)OC(=O)CCCCCCC [1,2-Dioctanoyl-sn-glycerol]",0.167
16,O=C(O)c1ccccc1Nc1cccc(C(F)(F)F)c1 [Flufenamic acid],0.0822
17,COc1cc(/C=C/C(=O)CC(=O)/C=C/c2ccc(O)c(OC)c2)ccc1O [Curcumin],-0.526
18,N=C(NC(=O)c1nc(Cl)c(N)nc1N)Nc1ccccc1 [Phenamil],-0.0134
19,CCCC(=O)Nc1ncnc2c1ncn2[C@@H]1O[C@@H]2COP(=O)(O)O[C@H]2[C@H]1OC(=O)CCC [Dibutyrylcyclic AMP],0.275
20,CCC(C)[C@H](NC(=O)[C@H](CCCCN)NC(=O)[C@H](CCCCN)NC(=O)[C@H](C)NC(=O)[C@H](CC(C)C)NC(=O)[C@H](C)NC(=O)[C@H](C)NC(=O)[C@H](CC(C)C)NC(=O)[C@H](C)NC(=O)[C@H](CCCCN)NC(=O)[C@H](CC(C)C)NC(=O)[C@H](CC(N)=O)NC(=O)[C@@H](N)[C@@H](C)CC)C(=O)N[C@@H](CC(C)C)C(N)=O (some centres undefined) [Mastoparan],0.339

row,SMILES,log
1,CCCCCC(=O)/C=C/C=C\CCCCCCCC(=O)O [13-Ketooctadecadienoic acid],-0.134
2,"CCCCCCCCCCCCC/C=C/[C@@H](O)[C@H](CO)N(C)C [N,N-Dimethylsphingosine]",-0.264
3,C#CCCCCCCCCCCCCCCCC(=O)O [17-Octadecynoic acid],0.0787
4,CCCCCCCCCCCCC/C=C/[C@@H](O)[C@@H](N)CO [Sphingosine],-0.149
5,"CCCCC/C=C\C/C=C\C/C=C\C/C=C\CCCC(=O)O [Arachidonic acid (20:4, n-6)]",0.0437
6,C=C1CC[C@H](O)C/C1=C/C=C1\CCC[C@]2(C)[C@@H]([C@H](C)CCCC(C)(C)O)CC[C@@H]12 [25-Hydroxyvitamin D3],0.162
7,COC(=O)[C@@H]1[C@H]2C[C@H]3c4[nH]c5ccccc5c4CCN3C[C@@H]2CC[C@@H]1O [Yohimbine],0.0551
8,"CCCCCCCCCCCC=CC(C)(C)C=CCCCC(=O)O [7,7-Dimethyleicosadienoic acid]",0.102
9,"C=C1CCC(O)C/C1=C\C=C1\CCCC2(C)C1CCC2C(C)CCC(O)C(C)(C)O (centres undefined) [24,25-Dihydroxyvitamin D3]",0.149
10,N=C(N)NC(=O)c1nc(Cl)c(N)nc1N [Amiloride],0.0039
11,COc1ccc([C@@H]2Sc3ccccc3N(CCN(C)C)C(=O)[C@@H]2OC(C)=O)cc1 [Diltiazem],0.232
12,CCCCCCCCCCCCCCCCOCC(COP(=O)([O-])OCC[N+](C)(C)C)OC (centres undefined) [1-Hexadecyl-2-methylglycero-3 PC],0.248
13,CC/C=C\C/C=C\C/C=C\CCCCCCCCCC(=O)O [Eicosatrienoic acid (20:3 n-3)],-0.191
14,CC[N+](C)(CC)CCC[n+]1c(-c2ccccc2)c2cc(N)ccc2c2ccc(N)cc21 [Propidium iodide],-0.671
15,CCOc1ccc(-c2nc3ccc(-c4nc5ccc(N6CCN(C)CC6)cc5[nH]4)cc3[nH]2)cc1,-1.93
16,CCCCCCCCCCCCC/C=C/[C@@H](O)[C@H](CO)NC(=O)CCCCCCC [C8 Ceramide],0.26
17,CCCCCCCCCCCCCCCCOCC(CO)OC (centres undefined) [1-Hexadecyl-2-O-methyl-glycerol],0.104
18,CCOC(=O)C(C)(C)Oc1ccc(Cl)cc1 [Clofibrate],0.0641
19,CCCCC[C@H](O)/C=C/C=C\C/C=C\C/C=C\CCCC(=O)O,-0.0523

# 2 neighbouring compounds already listed, for reference:
row,SMILES,log
3,C#CCCCCCCCCCCCCCCCC(=O)O [17-Octadecynoic acid],0.0787
4,CCCCCCCCCCCCC/C=C/[C@@H](O)[C@@H](N)CO [Sphingosine],-0.149

# — the supplement of paper PMC7024190
